Results deposited as PubChem BioAssay AID504784 (Drosophila RNAi Screening Center, 2011).
Screen: 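Search for regulators of lipid droplet storage in oleate-fed fly cells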 (primary screen). Cells: Drosophila Kc167 embryonic cells. Reagents: long dsRNA against Drosophila genes, about 250 ng dsRNA per well. Time to read-out: 4 days. Challenge: cells fed 400 µM oleic acid bound to BSA. Detection: 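Cells imaged and segmented; ratio of lipid droplet area to nuclear area, log-transformed, then normalised as a B-score over the screen; higher means more stored lipid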. Reading the numbers: droplet/nuclear area B-score: higher = more stored lipid (overstorage).
In all, the deposit lists about 17,000 reagents; this is an unselected part of those that have a named target and a result. 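Each column is one replicate's B-score; the combined score over replicates was not deposited, so single values may mislead.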 The numbers tell different reagents against one gene apart.

Gene | reagent no. | droplet/nuclear area B-score, replicate 1 | droplet/nuclear area B-score, replicate 2 | droplet/nuclear area B-score, replicate 3
Lamp1 | 1 | 0.039 | -0.0172 | –
CG3604 | 1 | -0.0242 | -0.499 | –
CG9673 | 1 | -0.0514 | – | –
CG13527 | 1 | 0.822 | -0.0931 | –
CG17646 | 1 | -1.53 | 0.297 | –
CG14252 | 1 | -0.298 | -0.785 | –
CG9896 | 1 | 2.27 | -0.8 | –
CG9896 | 2 | 0.47 | -0.185 | –
mRpL4 | 1 | 0.323 | 1.18 | –
CG12446 | 1 | 0.949 | -1.18 | –
cnir | 1 | -1.16 | 1.04 | –
sax | 1 | -0.669 | -1.51 | –
Vdup1 | 1 | -0.627 | -0.601 | –
Tom | 1 | 0.991 | -0.943 | -0.316
AstC-R1 | 1 | -1.79 | 0.852 | –
Ets97D | 1 | 1.35 | 2.12 | –
CG7341 | 1 | -0.439 | -0.79 | 0.0267
CG3123 | 1 | 0.716 | -1.19 | –
CG14591 | 1 | 1.48 | -0.26 | –
pan | 1 | 1.7 | -0.688 | –
pan | 2 | 0.385 | -1.62 | –
CG14785 | 1 | -0.426 | – | –
Dora | 1 | 1.23 | 2.06 | –
Dora | 2 | 0.459 | -0.623 | –
Dora | 3 | -0.931 | -0.756 | –
Dora | 4 | -0.0604 | -1.19 | –
Dcr-2 | 1 | 0.257 | -0.753 | –
CG15249 | 1 | -0.226 | -1.2 | 0.973
CG43996 | 1 | -0.684 | 0.0547 | –
CG43996 | 2 | 0.961 | -0.59 | –
Zip71B | 1 | -1.02 | -0.989 | –
Ctf4 | 1 | -1.11 | 0.73 | –
Sirt1 | 1 | -0.701 | 0.00232 | –
CG10638 | 1 | -0.764 | -1.25 | –
CG13599 | 1 | 0.868 | 2.2 | –
CG14408 | 1 | -0.0187 | 0.685 | -1.19
CG5478 | 1 | -0.537 | 0.0543 | –
CG15278 | 1 | 0.946 | -0.118 | –
Piezo | 1 | -2.14 | -0.878 | –
CG33229 | 1 | -0.268 | -0.763 | –
Pits | 1 | 0.873 | 0.0303 | 1.67
Pits | 2 | -0.311 | -0.463 | -0.104
CG12355 | 1 | 1.33 | -0.0725 | –
CG12355 | 2 | 0.339 | -0.054 | –
CG15576 | 1 | 0.681 | -0.0799 | –
CG4045 | 1 | 0.308 | – | –
Dhc98D | 1 | 1.21 | 1.04 | –
Nin | 1 | 0.185 | 0.899 | –
BthD | 1 | 1.08 | 1.02 | -0.312
Hsp68 | 1 | -0.116 | -0.567 | –
TotB | 1 | -0.909 | -0.397 | –
vkg | 1 | 2.37 | -2.54 | –
Gr64f | 1 | 1.06 | -0.182 | –
sxe2 | 1 | 0.123 | 0.0798 | –
Or83c | 1 | 0.0827 | 0.99 | –
CG5726 | 1 | -0.0314 | 0.0373 | –
